Experimental data reported in the supplement of paper PMC12578635.
± gives the standard deviation of the averaged measurements. Some of the results follow. Repeats are few or missing, and single values can be far off.

Each compound was assayed on RAW 264.7 macrophages infected with S. aureus JE2-lux (assay: host macrophage viability (CellTiter-Fluor) relative to DMSO vehicle; higher = more viable host cells). Details: 10 µM; treatment time 4 h; gentamicin 50 µg/ml.

Structure (SMILES) | host macrophage viability [%]
Cc1cc(SCc2ccccc2F)nc(=O)[nH]1 | 114
COc1cccc(NC(=O)CSc2nccn(-c3ccc(OC)c(Cl)c3)c2=O)c1 | 131
COCCNC(=O)C(=O)Nc1ccc2c(c1)CCCN2C(=O)c1cccs1 | 105
O=C(CS(=O)(=O)c1c[nH]c2ccccc12)NC1CCCCC1 | 112
CN1CCc2cc(C(CNC(=O)Cc3ccc(-c4ccccc4)cc3)N3CCOCC3)ccc21 (stereo not drawn) | 111
CC(CCc1ccccc1)NC(=O)c1ncoc1-c1ccccc1F (stereo not drawn) | 108
O=C(NCC1CCCO1)C(=O)Nc1cc2c3c(c1)CCC(=O)N3CCC2 (stereo not drawn) | 118
COc1cccc(-n2c(=O)[nH]c3c(C(N)=O)nc(-c4ccccc4Cl)nc32)c1 | 139
CCOc1ccc(-n2c(C)c(C)c3c2ncn2ncnc32)cc1 | 104
Cc1cc2oc(C(=O)Nc3ccccc3F)c(C)c2cc1C | 132
CNS(=O)(=O)c1cc(-c2cc(C(=O)Nc3ccc(C(C)C)cc3)n[nH]2)ccc1OC | 106
COc1ccc(C(=O)Nc2sc3c(c2C(N)=O)CC(C)CC3)cc1OC (stereo not drawn) | 114
Cc1nn2c(C(F)(F)F)cc(-c3ccncc3)nc2c1-c1ccc(Cl)cc1 | 124
Cc1cc(NC(=O)Cc2ccccc2)nc2c1c(=O)oc1ccccc12 | 124
Cc1ccc(NC(=O)c2cnc3n(c2=O)CCS3)c(Br)c1 | 99.3
COCCCn1c(-c2ccc(Br)cc2)nc(=S)c2c1CCCC2 | 105
O=C(NNC(=O)c1cc2ccccc2oc1=O)c1ccccc1 | 107 ± 16
Cc1ccc(Nc2c(C(=O)N3CCN(c4cccc(Cl)c4)CC3)cnc3c2c(C)nn3C)cc1 | 109
CN1CCN(n2c3c(c(SCC(=O)NCc4ccc5c(c4)OCO5)nc2=O)CCCC3)CC1 | 109
O=C(Nc1ccc(I)cc1)c1cc2cc(Cl)ccc2oc1=O | 111
CCCc1c(C)nc(N2CCN(c3ccc(F)cc3)CC2)[nH]c1=O | 126
CCOC(=O)c1ccc2c(c1)s/c(=N/C(=O)c1cccc(S(=O)(=O)CC)c1)n2CC | 115
Cc1ccc2sc(N(CCCn3ccnc3)C(=O)c3ccco3)nc2c1C | 117
Cn1c2ccc(F)cc2c2nnc(SCC(=O)NC3CCCCC3)nc21 | 114
O=c1c(SCc2ccc(Cl)cc2)nccn1-c1ccc(F)cc1 | 146
O=C(NCCc1nc2cccnc2n1C1CCCC1)NCc1ccco1 | 109

Rewritten as comma-separated lines: entries from further up.
Structure (SMILES),host macrophage viability [%]
Cc1cc(NC(=O)Cc2ccccc2)nc2c1c(=O)oc1ccccc12,124
Cc1ccc(NC(=O)c2cnc3n(c2=O)CCS3)c(Br)c1,99.3
COCCCn1c(-c2ccc(Br)cc2)nc(=S)c2c1CCCC2,105
O=C(NNC(=O)c1cc2ccccc2oc1=O)c1ccccc1,107 ± 16

The listing continues.

Structure (SMILES) | host macrophage viability [%]
CCN(CC)C(=O)c1cnc2ccc(Cl)cc2c1O | 94.7
CCc1ccc(NC(=O)CCc2nc(-c3nn(-c4ccc(Cl)cc4)c(=O)n(C)c3=O)no2)cc1 | 95.1
COc1ccc(-c2cnc3c(-c4ccccc4)c(C)nn3c2N)cc1OC | 120
COc1ccc(OC)c(NC(=O)C2=C(C)NC(=S)NC2c2ccc(C(C)C)cc2)c1 (stereo not drawn) | 110
O=C1Nc2ccc(Br)cc2/C1=C1/SC(=S)N(C(Cc2ccccc2)C(=O)O)C1=O (stereo not drawn) | 100
O=C(CN1C(=O)c2ccccc2S1(=O)=O)Nc1ccon1 | 137
CCc1cccc(C)c1NC(=O)CSc1nnc(-c2ccncc2)o1 | 129
Cc1cc(NC(=O)CSc2nnc(NC(=O)C3CC(=O)N(c4ccc(C)c(C)c4)C3)s2)no1 (stereo not drawn) | 116
Cc1nn2cc(C#N)c(-c3ccccc3)nc2c1-c1ccccc1 | 102
CCCCCn1c(SCC(=O)CC(=O)OCC)nc2cc(C(=O)NCc3ccco3)ccc2c1=O | 118
CCOc1ccccc1NCc1nc2nc(C)cc(C)n2n1 | 117
NC(=O)c1cc2cc(Cl)ccc2o/c1=N\c1cccc(C(F)(F)F)c1 | 104 ± 3.8
COCCn1c(=O)[nH]c2ccccc2/c1=N\C(=O)Nc1ccccc1C#N | 114
COc1cccc(-c2cc(C(F)(F)F)n3ncc(C(=O)O)c3n2)c1 | 110
O=c1oc2cc([N+](=O)[O-])ccc2c2ccc([N+](=O)[O-])cc12 | 127
COc1ccc(S(=O)(=O)N2CCOCC2)cc1C(=O)NCc1ccc2c(c1)OCO2 | 106
Cc1ccc(-n2nnc3c(SCC(=O)N4CCOCC4)ncnc32)cc1 | 117 ± 11
NC(=O)c1ccccc1NC(=O)CCn1c(=O)oc2ccccc21 | 121 ± 14
CCOC(=O)c1csc(-n2nc3c(c2C(F)(F)F)CCCCC3)n1 | 84.7
O=C(O)c1ccc2c(c1)C(=O)N(C(CC1=C[NH2+]C=N1)C(=O)[O-])C2=O (stereo not drawn) | 121
CC(c1ccccc1)n1c(CN2CCCCC2)nc2ccccc21 (stereo not drawn) | 122
Cc1ccc(C)c(CC(=O)Nc2nc3ccc4nc(C)sc4c3s2)c1 | 117
O=C(Nc1ccccc1F)N1CCC(c2nc3cc(Cl)ccc3[nH]2)CC1 | 122
CCCCOC(=O)c1ccc(NC(=O)c2cc(-c3ccc4c(c3)OCCO4)on2)cc1 | 118
Cn1c(=O)[nH]c2cc(-c3noc(CNC(=O)c4ccccc4)n3)ccc21 | 107
CC(=O)Nc1cccc(NC(=O)C(=O)Nc2ccc3c(c2)N(C(=O)C2CC2)CCC3)c1 | 112

Structure (SMILES) | host macrophage viability [%]
COc1ccc(C(=O)N2c3cc(CNC(=O)c4cc(CC(C)C)on4)ccc3CC2C)cc1 (stereo not drawn) | 96.1
Cc1csc(SCc2cc(=O)c(OC(=O)Cc3ccc(F)cc3)co2)n1 | 109
Cc1nc2ccccc2c(=O)n1-c1ccc(NS(=O)(=O)c2ccc3c(c2)OCCO3)cc1 | 114
CCOc1ccc(N2CCn3c2nc2c3c(=O)n(CC(=O)O)c(=O)n2C)cc1 | 140
O=C(CSC1=NS(=O)(=O)c2cc(F)ccc2N1)NCc1ccc2c(c1)OCO2 | 115
COc1ccc(Cc2nnc3sc(SCC(=O)Nc4ccccc4)nn3c2=O)cc1OC | 122
CCOc1ccc(CCNC(=O)CN2c3ccccc3S(=O)(=O)c3ccccc32)cc1OCC | 109
CCOC(=O)C1CCCN(c2ncnc3scc(-c4ccc(Cl)cc4)c23)C1 (stereo not drawn) | 120
Cn1c(=O)c2c(nc3n2CC(C(C)(C)C)=NN3CCN2CCOCC2)n(C)c1=O | 120
COc1cccc(-c2noc(NCCC(C)C)n2)c1 | 133
CCN(CC)C(=O)c1sc2nc3cc(C)c(C)cc3cc2c1N | 112
CCOc1cc(-c2nc3ccc(C)cn3c2NCC2CCCO2)ccc1O (stereo not drawn) | 138
CCc1cc(Sc2nnc(NC(=O)Nc3cccc(Cl)c3)s2)n2ncnc2n1 | 116
Cc1nc2ccc(NC(=S)NC(=O)CN3C(=O)CCC3=O)cc2s1 | 115 ± 13
CCOC(=O)c1sc2nc(C)nc(Oc3cccc(OC)c3)c2c1C | 112
COc1ccc2cc(C(=O)N3CCN(c4cc(C)nc(C)n4)CC3)n(C)c2c1 | 105
CC1C(=O)N2CCCc3cc(NC(=O)C(=O)NCCC4=CCCCC4)cc1c32 (stereo not drawn) | 103
O=C(Nc1ccc(F)cc1F)c1nnc(C2CCN(C(=O)C3CCCCC3)CC2)s1 | 105
O=C(Nc1cc(C(F)(F)F)cc(C(F)(F)F)c1)c1cnc2sccn2c1=O | 112 ± 6.3
CCOC(=O)c1cccc(NC(=O)CSc2nnc3ccc(C(=O)NCc4ccccc4)cn23)c1 | 95.4
CC(=O)c1c(C)nn(CC(O)COc2ccc(C(=O)c3ccc(Cl)cc3)cc2)c1C (stereo not drawn) | 125
Clc1cccc2sc(N3CCN(c4ccccc4)CC3)nc12 | 118 ± 5
CCOc1ccc(Oc2nc(C)nc3sc4c(c23)CCCC4)cc1 | 123
CCS(=O)(=O)c1ccccc1C(=O)Nc1nc2c(s1)C(=O)CC(C)(C)C2 | 106
O=C(C1CCCN(c2nccnc2Oc2ccccc2)C1)N1CCN(c2ccccc2)CC1 (stereo not drawn) | 118
O=c1[nH]cc(S(=O)(=O)N2CCc3ccccc3C2)c(=O)[nH]1 | 118

Structure (SMILES) | host macrophage viability [%]
Nc1c(C(=O)Nc2ccc(Br)cc2)sc2[nH]c(=O)c(C(=O)O)cc12 | 120
Cc1ccc2c(c1)cc(C)c1nnc(SCC(=O)Nc3cc(C)on3)n12 | 118
Cc1noc(C)c1C(=O)Nc1ccccc1NC(=O)c1ccccn1 | 114
CSc1nc2ccc3nc(NC(=O)CN4C(=O)c5ccccc5C4=O)sc3c2s1 | 95 ± 3.2
CCc1noc2nc(C(=O)O)nc(N3CCOCC3)c12 | 95.5
CC1(C)Cc2c(sc(NC(=O)c3ccc4ncsc4c3)c2C(N)=O)C(C)(C)N1 | 125
Cc1cccc(C2Oc3ccccc3C3CC(c4cccc(NS(C)(=O)=O)c4)=NN32)c1 (stereo not drawn) | 121
COCCNC(=O)c1nn(C)c2c1CCc1ccccc1-2 | 121
COc1ccc(Cl)c2sc(N3CCN(C(=O)c4cccc(N5C(=O)CCC5=O)c4)CC3)nc12 | 104
COc1cccc(C(=O)NCC(=O)N/N=C/c2cccs2)c1 | 118
CCc1cc2c(=O)n(-c3ccc(Cl)cc3)c(SCC(=O)c3cccs3)nc2s1 | 122
Cc1cc(C(=O)NC(c2ccccc2)c2ccnn2C)c2cccc(Cl)c2n1 (stereo not drawn) | 109
O=C(CSC1=NS(=O)(=O)c2ccccc2N1)Nc1ccc2c(c1)OCCO2 | 120
Cc1nc(Nc2ccc(NS(=O)(=O)c3ccc(F)cc3F)cc2)cc(N(C)C)n1 | 103
Cc1ccc(C)c2[nH]c(=O)c(CCNC(=O)c3ccccc3F)cc12 | 119
CCOc1ccc2c(c1)sc1nc(-c3ccc(C(C)C)cc3)c(NCCOC)n12 | 92.8
CCCn1ncc(C)c1NC(=O)Cn1nc2c(C)cc3ccc(OC)cc3n2c1=O | 97.1
CCOc1ccc(NC(=O)Cn2c(=O)c3cccnc3n(-c3ccccc3)c2=O)cc1 | 115
Cc1c(S(=O)(=O)N2CCC(c3nnc(C(=O)Nc4ccccc4)s3)CC2)cnn1C(F)F | 120
COc1ccc(CC(=O)N2CCN(c3c(C)n(C)c(=O)n(C)c3=O)CC2)cc1OC | 115
Cc1ccccc1-n1cc(-c2ccccc2)c2c(NC3CCCCC3)ncnc21 | 95.1
O=C(c1cccnc1)N1CCc2c([nH]c3ccccc23)C1c1ccc(Cl)cc1 (stereo not drawn) | 122
O=S(=O)(c1cn(Cc2noc(-c3cc4cc(Cl)ccc4[nH]3)n2)cn1)N1CCOCC1 | 97.9
COc1ccc(/C=C2/SC(Nc3cccnc3)=NC2=O)cc1OC | 101 ± 5.1
COc1ccc2cc(C(N)=O)/c(=N/c3cccc(C)c3)oc2c1 | 112
